According to PubChem BioAssay AID540256 (National Center for Advancing Translational Sciences (NCATS), 2011):
Several values for one entry are separate records, joined by “and”; a condition that tells them apart may be missing. Equal entries are not always repeated. Among all 300,000 compounds or so, about 3,700 (1.2%) were called active. The inconclusive results got no clear call from the source; some entries with a clear call stand among them for comparison. Calls follow the shape of the full dose curve; tested in HEK293 cells. A potency beside an inconclusive call is a rough fit, not a confirmed value.

assay: qHTS for Inhibitors of binding or entry into cells for Lassa Virus; conditions: Lassa virus pseudotype entry inhibition, cell reporter; series mostly up to 37.9 µM; also: nearly all actives have a fitted effect of over 50% in size
Potency is read from the fitted curve at half-maximal effect.

Compound	Potency
COc1ccc(CCNS(=O)(=O)c2c(C)nc3scc(C)n3c2=O)cc1OC	inactive
Cc1ccc2nc(-c3ccccc3)nn2c1	active: 1.12 µM
CCn1c(=O)c(C(=O)CN2CCN(S(=O)(=O)c3ccc(C)cc3C)CC2)c(N)n(Cc2ccccc2)c1=O	inconclusive: 2.91 µM [inhibitor, partial curve, poor fit]
O=C1NC(=Nc2ccc(Cl)cc2)SC1Cc1cccc(Cl)c1Cl (centres undefined)	inconclusive: 14.1 µM [inhibitor, partial curve, poor fit]
Cn1nccc1C(=O)NC1CC(C)(C)Cc2c1cnn2-c1ccc(F)cc1 (centres undefined)	inactive
CN(C)c1ccc(C=Nc2ccccc2)cc1	inconclusive: 7.3 µM [inhibitor, single point]
CCCCCN(C(=O)NC(=O)Nc1cccc(C)c1C)S(C)(=O)=O	inconclusive: 22.4 µM [inhibitor, single point]
Cc1ccc(-c2nn(-c3ccccc3)cc2CNCc2ccccc2)cc1	inconclusive: 35.5 µM [inhibitor, single point]
Cc1ccc(-n2c(O)c(C=Nc3ccc(S(=O)(=O)N(C)C)cc3)c(=O)[nH]c2=O)cc1	inconclusive: 0.0058 µM [activator, full curve, poor fit]
Cc1cc(=O)[nH]c2nnc(SCc3ccc(C(F)(F)F)cc3)n12	inconclusive: 35.5 µM [inhibitor, single point]
Cc1cccc(C)c1NC(=O)Cn1c(SCC(=O)NCc2ccccc2)nc2ccccc21	inactive
Cn1cccc1-c1cc2n(n1)CCC(=O)N2CCCC(=O)NCc1ccc(F)cc1	inactive
CC(=O)c1ccc(N=c2scc(C)n2C(C)C)cc1	inactive
CCOc1ccc(-c2nnc(SCC(=O)c3ccccc3)n2-c2ccccc2)cc1	inactive
C/C(=N\N1CCN(c2ccc(Cl)cc2)CC1)c1cccc([N+](=O)[O-])c1	inconclusive: 35.5 µM [inhibitor, single point]
COc1ccc(NC(=O)/C(C#N)=C\c2cc(C)n(-c3ccc4c(c3)OCO4)c2C)cc1	inconclusive: 11.6 µM [inhibitor, partial curve]
CCCCCCC1CCC(C(=O)N2CCOCC2)CC1 (centres undefined)	inconclusive: 11.6 µM [inhibitor, partial curve]
N#Cc1ccc(NC(=O)CN2CCCCCC2)cc1Cl	inconclusive: 20 µM [activator, partial curve, poor fit]
COC(=O)c1ccc2c(c1)C(C)(C)C(/C=C/c1ccc(O)cc1)=[N+]2C	inconclusive: 29.1 µM [inhibitor, single point]
CC1(C)C2CCC1(C)C(NC(=O)CCN1CCCCC1)C2 (centres undefined)	inactive
CCOC(=O)CNC(=O)c1cc(OC)cc(OC)c1	inactive
COC(=O)C1CCN(C(=O)Cc2ccc(Br)cc2)CC1	inconclusive: 16.4 µM [activator, partial curve, poor fit]

Reformatted comma-delimited: two of the compounds above
Compound,Potency
CCCCCN(C(=O)NC(=O)Nc1cccc(C)c1C)S(C)(=O)=O,"inconclusive: 22.4 µM [inhibitor, single point]"
Cc1ccc(-n2c(O)c(C=Nc3ccc(S(=O)(=O)N(C)C)cc3)c(=O)[nH]c2=O)cc1,"inconclusive: 0.0058 µM [activator, full curve, poor fit]"

Later entries

Compound	Potency
O=[N+]([O-])c1ccc(S(=O)(=O)NCC(c2ccco2)N2CCc3ccccc3C2)cc1 (centres undefined)	inconclusive: 0.112 µM [inhibitor, full curve, poor fit]
COc1ccc2oc3cc(C)[n+]([O-])c(-c4ccc(Cl)cc4)c3c2c1	inconclusive: 0.651 µM [inhibitor, partial curve, poor fit]
Cc1ccc(C2C(C#N)=C(N)Oc3cc4c(cc32)OCO4)cc1 (centres undefined)	inconclusive: 25.9 µM [inhibitor, partial curve, poor fit]
COc1ccc2[nH]c(C(=O)NCCCN3CCCC3=O)c(C)c2c1	inconclusive: 5.62 µM [inhibitor, single point]
COc1ccc(Cn2c(/C=C/c3ccccc3)nc3ccccc32)cc1	inactive
Cc1c(Nc2nc(-c3cccc([N+](=O)[O-])c3)cs2)c(=O)n(-c2ccccc2)n1C	inactive
Cc1ccc(NS(=O)(=O)c2cccs2)nc1	inconclusive: 35.5 µM [activator, single point]
COc1ccc(C2=NN(C(=O)c3ccc(Cl)c([N+](=O)[O-])c3)C(c3ccccc3)C2)cc1 (centres undefined)	inconclusive: 32.6 µM [inhibitor, partial curve, poor fit] and inconclusive: 29.1 µM [inhibitor, single point]
O=C(CN(c1cccc(Br)c1)S(=O)(=O)c1ccccc1)N/N=C/c1cc([N+](=O)[O-])ccc1O	inconclusive: 22.4 µM [inhibitor, single point]
O=C(OCC(=O)N1CCCCC1)c1cc(NS(=O)(=O)c2ccc(Cl)c([N+](=O)[O-])c2)ccc1O	inactive
O=C(NCCCn1ccnc1)C1CC(c2ccccc2Cl)=NO1 (centres undefined)	inactive
Cc1ccccc1C(=O)OCCCN=C1NS(=O)(=O)c2ccccc21	inactive
Cc1cc(C(=O)Nc2nc(-c3ccccn3)cs2)ccc1[N+](=O)[O-]	inconclusive: 25.1 µM [inhibitor, single point]
CCN(CC)C(=O)CSc1nc2cc3c(cc2c(=O)n1Cc1ccc(OC)cc1)OCO3	inconclusive: 10 µM [inhibitor, partial curve, poor fit]
O=C(Nc1cc2ccc(O)cc2oc1=O)c1ccccc1	inactive
Fc1ccccc1COc1ccc2ccccc2c1CNc1nn[nH]n1	inactive
COc1ccc(/C=C2\CCn3c2nc2cc(C(=O)O)ccc2c3=O)cc1OC	inactive
O=S(=O)(c1ccc(-c2csc(=Nc3ccc(OC(F)(F)Cl)cc3)n2CCCO)cc1)N1CCCC1	inconclusive: 14.1 µM [inhibitor, single point]
O=c1/c(=C\c2cccnc2)sc2nc3ccccc3n12	inconclusive: 25.1 µM [activator, partial curve, poor fit]
O=C(NCc1cccc(Cl)c1)C1CCCN(c2ncnc3c2nc2n3CCCCC2)C1 (centres undefined)	inconclusive: 7.94 µM [inhibitor, full curve, poor fit]
COc1ccccc1Oc1ccc(S(=O)(=O)N2CCCCC2C)cc1 (centres undefined)	inconclusive: 25.1 µM [inhibitor, single point]
CC(=O)Nc1cccc(N=NN2CCCCC2)c1	inactive
